These are yes or no findings as the source states them, for the method shown. Some binding calls cover weakened binding; strength is not graded here.
B1: PMAB244 (antibody, human IgG1, kappa, V domains shown)
VH: QVQLVQSGAEVKKPGASVKVSCKASGYSFTTYYMHWVRQAPGQGLEWMGIIQPSGGSTSYAQKFQGRVTMTRDTSTSTVYMELSSLRSEDTAVYYCASGWVYWGQGTLVTVSS
VL: DIQMTQSPSSLSASVGDRVTITCQASRDIKNYLAWYQQKPGKAPKLLIYAASSLQSGVPSRFSGSGSGTDFTLTISSLQPEDFATYYCQQSYSTPPTFGPGTKVDIKR
B2: PMAB245 (antibody, human IgG1, kappa, V domains shown)
VH: QVQLVQSGAEVKKPGASVKVSCKASGYTFTTYYMHWVRQAPGQGLEWMGIIQPSGGSTSYAQKFQGRVTMTRDTSTSTVYMELSSLRSEDTAVYYCASGWVYWGQGTLVTVSS
VL: DIQMTQSPSSLSASVGDRVTITCQASRDIKNYLAWYQQKPGKAPKLLIYAASSLQSGVPSRFSGSGSGTDFTLTISSLQPEDFATYYCQQSYSTPPTFGPGTKVDIKR
B3: PMAB246 (antibody, human IgG1, kappa, V domains shown)
VH: QVQLVQSGAEVKKPGASVKVSCKASGYSFTSYYMHWVRQAPGQGLEWMGIIQPSGGSTSYAQKFQGRVTMTRDTSTSTVYMELSSLRSEDTAVYYCASGWVYWGQGTLVTVSS
VL: DIQMTQSPSSLSASVGDRVTITCQASRDIKNYLAWYQQKPGKAPKLLIYAASSLQSGVPSRFSGSGSGTDFTLTISSLQPEDFATYYCQQSYSTPPTFGPGTKVDIKR
B4: PMAB247 (antibody, human IgG1, kappa, V domains shown)
VH: QVQLVQSGAEVKKPGASVKVSCKASGYTFTSYYMHWVRQAPGQGLEWMGIIQPSGGSTSYAQKFQGRVTMTRDTSTSTVYMELSSLRSEDTAVYYCASGWVYWGQGTLVTVSS
VL: DIQMTQSPSSLSASVGDRVTITCQASRDIKNYLAWYQQKPGKAPKLLIYAASSLQSGVPSRFSGSGSGTDFTLTISSLQPEDFATYYCQQSYSTPPTFGPGTKVDIKR
B5: PMAB248 (antibody, human IgG1, kappa, V domains shown)
VH: QVQLVQSGAEVKKPGASVKVSCKASGYSFTTYYMHWVRQAPGQGLEWMGIIQPSGGSTSYAQKFQGRVTMTRDTSTSTVYMELSSLRSEDTAVYYCASGWVYWGQGTLVTVSS
VL: DIQMTQSPSSLSASVGDRVTITCRASQDIKNYLAWYQQKPGKAPKLLIYAASSLQSGVPSRFSGSGSGTDFTLTISSLQPEDFATYYCQQSYSTPPTFGPGTKVDIKR
B6: PMAB250 (antibody, human IgG1, kappa, V domains shown)
VH: QVQLVQSGAEVKKPGASVKVSCKASGYSFTTYYMHWVRQAPGQGLEWMGIIQPSGGSTSYAQKFQGRVTMTRDTSTSTVYMELSSLRSEDTAVYYCASGWVYWGQGTLVTVSS
VL: DIQMTQSPSSLSASVGDRVTITCRASRDISNYLAWYQQKPGKAPKLLIYAASSLQSGVPSRFSGSGSGTDFTLTISSLQPEDFATYYCQQSYSTPPTFGPGTKVDIKR
B7: PMAB251 (antibody, human IgG1, kappa, V domains shown)
VH: QVQLVQSGAEVKKPGASVKVSCKASGYSFTTYYMHWVRQAPGQGLEWMGIIQPSGGSTSYAQKFQGRVTMTRDTSTSTVYMELSSLRSEDTAVYYCASGWVYWGQGTLVTVSS
VL: DIQMTQSPSSLSASVGDRVTITCRASRDIKSYLAWYQQKPGKAPKLLIYAASSLQSGVPSRFSGSGSGTDFTLTISSLQPEDFATYYCQQSYSTPPTFGPGTKVDIKR
B8: PMAB252 (antibody, human IgG1, kappa, V domains shown)
VH: QVQLVQSGAEVKKPGASVKVSCKASGYSFTTYYMHWVRQAPGQGLEWMGIIQPSGGSTSYAQKFQGRVTMTRDTSTSTVYMELSSLRSEDTAVYYCASGWVYWGQGTLVTVSS
VL: DIQMTQSPSSLSASVGDRVTITCQASQSIKNYLAWYQQKPGKAPKLLIYAASSLQSGVPSRFSGSGSGTDFTLTISSLQPEDFATYYCQQSYSTPPTFGPGTKVDIKR
B9: PMAB253 (antibody, human IgG1, kappa, V domains shown)
VH: QVQLVQSGAEVKKPGASVKVSCKASGYSFTTYYMHWVRQAPGQGLEWMGIIQPSGGSTSYAQKFQGRVTMTRDTSTSTVYMELSSLRSEDTAVYYCASGWVYWGQGTLVTVSS
VL: DIQMTQSPSSLSASVGDRVTITCQASQDISNYLAWYQQKPGKAPKLLIYAASSLQSGVPSRFSGSGSGTDFTLTISSLQPEDFATYYCQQSYSTPPTFGPGTKVDIKR
B10: PMAB254 (antibody, human IgG1, kappa, V domains shown)
VH: QVQLVQSGAEVKKPGASVKVSCKASGYSFTTYYMHWVRQAPGQGLEWMGIIQPSGGSTSYAQKFQGRVTMTRDTSTSTVYMELSSLRSEDTAVYYCASGWVYWGQGTLVTVSS
VL: DIQMTQSPSSLSASVGDRVTITCQASQDIKSYLAWYQQKPGKAPKLLIYAASSLQSGVPSRFSGSGSGTDFTLTISSLQPEDFATYYCQQSYSTPPTFGPGTKVDIKR
B11: PMAB255 (antibody, human IgG1, kappa, V domains shown)
VH: QVQLVQSGAEVKKPGASVKVSCKASGYSFTTYYMHWVRQAPGQGLEWMGIIQPSGGSTSYAQKFQGRVTMTRDTSTSTVYMELSSLRSEDTAVYYCASGWVYWGQGTLVTVSS
VL: DIQMTQSPSSLSASVGDRVTITCQASRSISNYLAWYQQKPGKAPKLLIYAASSLQSGVPSRFSGSGSGTDFTLTISSLQPEDFATYYCQQSYSTPPTFGPGTKVDIKR
B12: PMAB256 (antibody, human IgG1, kappa, V domains shown)
VH: QVQLVQSGAEVKKPGASVKVSCKASGYSFTTYYMHWVRQAPGQGLEWMGIIQPSGGSTSYAQKFQGRVTMTRDTSTSTVYMELSSLRSEDTAVYYCASGWVYWGQGTLVTVSS
VL: DIQMTQSPSSLSASVGDRVTITCQASRSIKSYLAWYQQKPGKAPKLLIYAASSLQSGVPSRFSGSGSGTDFTLTISSLQPEDFATYYCQQSYSTPPTFGPGTKVDIKR
B13: PMAB257 (antibody, human IgG1, kappa, V domains shown)
VH: QVQLVQSGAEVKKPGASVKVSCKASGYSFTTYYMHWVRQAPGQGLEWMGIIQPSGGSTSYAQKFQGRVTMTRDTSTSTVYMELSSLRSEDTAVYYCASGWVYWGQGTLVTVSS
VL: DIQMTQSPSSLSASVGDRVTITCQASRDISSYLAWYQQKPGKAPKLLIYAASSLQSGVPSRFSGSGSGTDFTLTISSLQPEDFATYYCQQSYSTPPTFGPGTKVDIKR
B14: PMAB258 (antibody, human IgG1, kappa, V domains shown)
VH: QVQLVQSGAEVKKPGASVKVSCKASGYSFTTYYMHWVRQAPGQGLEWMGIIQPSGGSTSYAQKFQGRVTMTRDTSTSTVYMELSSLRSEDTAVYYCASGWVYWGQGTLVTVSS
VL: DIQMTQSPSSLSASVGDRVTITCRASQSIKNYLAWYQQKPGKAPKLLIYAASSLQSGVPSRFSGSGSGTDFTLTISSLQPEDFATYYCQQSYSTPPTFGPGTKVDIKR
B15: PMAB259 (antibody, human IgG1, kappa, V domains shown)
VH: QVQLVQSGAEVKKPGASVKVSCKASGYSFTTYYMHWVRQAPGQGLEWMGIIQPSGGSTSYAQKFQGRVTMTRDTSTSTVYMELSSLRSEDTAVYYCASGWVYWGQGTLVTVSS
VL: DIQMTQSPSSLSASVGDRVTITCRASQDISNYLAWYQQKPGKAPKLLIYAASSLQSGVPSRFSGSGSGTDFTLTISSLQPEDFATYYCQQSYSTPPTFGPGTKVDIKR
B16: PMAB260 (antibody, human IgG1, kappa, V domains shown)
VH: QVQLVQSGAEVKKPGASVKVSCKASGYSFTTYYMHWVRQAPGQGLEWMGIIQPSGGSTSYAQKFQGRVTMTRDTSTSTVYMELSSLRSEDTAVYYCASGWVYWGQGTLVTVSS
VL: DIQMTQSPSSLSASVGDRVTITCRASQDIKSYLAWYQQKPGKAPKLLIYAASSLQSGVPSRFSGSGSGTDFTLTISSLQPEDFATYYCQQSYSTPPTFGPGTKVDIKR
B17: PMAB261 (antibody, human IgG1, kappa, V domains shown)
VH: QVQLVQSGAEVKKPGASVKVSCKASGYSFTTYYMHWVRQAPGQGLEWMGIIQPSGGSTSYAQKFQGRVTMTRDTSTSTVYMELSSLRSEDTAVYYCASGWVYWGQGTLVTVSS
VL: DIQMTQSPSSLSASVGDRVTITCRASRSISNYLAWYQQKPGKAPKLLIYAASSLQSGVPSRFSGSGSGTDFTLTISSLQPEDFATYYCQQSYSTPPTFGPGTKVDIKR
B18: PMAB262 (antibody, human IgG1, kappa, V domains shown)
VH: QVQLVQSGAEVKKPGASVKVSCKASGYSFTTYYMHWVRQAPGQGLEWMGIIQPSGGSTSYAQKFQGRVTMTRDTSTSTVYMELSSLRSEDTAVYYCASGWVYWGQGTLVTVSS
VL: DIQMTQSPSSLSASVGDRVTITCRASRSIKSYLAWYQQKPGKAPKLLIYAASSLQSGVPSRFSGSGSGTDFTLTISSLQPEDFATYYCQQSYSTPPTFGPGTKVDIKR
B19: PMAB263 (antibody, human IgG1, kappa, V domains shown)
VH: QVQLVQSGAEVKKPGASVKVSCKASGYSFTTYYMHWVRQAPGQGLEWMGIIQPSGGSTSYAQKFQGRVTMTRDTSTSTVYMELSSLRSEDTAVYYCASGWVYWGQGTLVTVSS
VL: DIQMTQSPSSLSASVGDRVTITCRASRDISSYLAWYQQKPGKAPKLLIYAASSLQSGVPSRFSGSGSGTDFTLTISSLQPEDFATYYCQQSYSTPPTFGPGTKVDIKR
B20: PMAB264 (antibody, human IgG1, kappa, V domains shown)
VH: QVQLVQSGAEVKKPGASVKVSCKASGYSFTTYYMHWVRQAPGQGLEWMGIIQPSGGSTSYAQKFQGRVTMTRDTSTSTVYMELSSLRSEDTAVYYCASGWVYWGQGTLVTVSS
VL: DIQMTQSPSSLSASVGDRVTITCQASQSISNYLAWYQQKPGKAPKLLIYAASSLQSGVPSRFSGSGSGTDFTLTISSLQPEDFATYYCQQSYSTPPTFGPGTKVDIKR
B21: PMAB265 (antibody, human IgG1, kappa, V domains shown)
VH: QVQLVQSGAEVKKPGASVKVSCKASGYSFTTYYMHWVRQAPGQGLEWMGIIQPSGGSTSYAQKFQGRVTMTRDTSTSTVYMELSSLRSEDTAVYYCASGWVYWGQGTLVTVSS
VL: DIQMTQSPSSLSASVGDRVTITCQASQSIKSYLAWYQQKPGKAPKLLIYAASSLQSGVPSRFSGSGSGTDFTLTISSLQPEDFATYYCQQSYSTPPTFGPGTKVDIKR
B22: PMAB266 (antibody, human IgG1, kappa, V domains shown)
VH: QVQLVQSGAEVKKPGASVKVSCKASGYSFTTYYMHWVRQAPGQGLEWMGIIQPSGGSTSYAQKFQGRVTMTRDTSTSTVYMELSSLRSEDTAVYYCASGWVYWGQGTLVTVSS
VL: DIQMTQSPSSLSASVGDRVTITCQASQDISSYLAWYQQKPGKAPKLLIYAASSLQSGVPSRFSGSGSGTDFTLTISSLQPEDFATYYCQQSYSTPPTFGPGTKVDIKR

Protein sequences, listed by entry. Tags and fused reporters are not part of them. Residues count along the entry.
UniProt Q15116, residues 25-167: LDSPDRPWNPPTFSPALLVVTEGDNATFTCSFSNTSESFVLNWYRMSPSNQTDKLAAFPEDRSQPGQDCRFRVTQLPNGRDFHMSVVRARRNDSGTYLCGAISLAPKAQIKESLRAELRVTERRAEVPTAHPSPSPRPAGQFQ

Biological target: human PD-1 (human) (UniProt Q15116)
Test: ELISA on coated huPD-1

Question: For B1, which binding is on record?
Answer: Its binding is “binds”.

Question: How did the binding turn out when B2 was run?
Answer: Its binding is “binds”.

Question: How did the binding turn out when B3 was run?
Answer: The binding was “binds”.

Question: Which binding does the source give for B4 here?
Answer: The binding was “binds”.

Question: With B5 as the binder, how does the binding read?
Answer: The binding was “binds”.

Question: With B6 as the binder, how does the binding read?
Answer: Its binding is “binds”.

Question: How did the binding turn out when B7 was run?
Answer: The binding was “binds”.

Question: Which binding does the source give for B8 here?
Answer: Its binding is “binds”.

Question: For B9, which binding is on record?
Answer: Its binding is “binds”.

Question: B10 was tested. Which binding did it give?
Answer: The binding was “binds”.

Question: Which binding does the source give for B11 here?
Answer: Its binding is “binds”.

Question: B12 was tested. Which binding did it give?
Answer: The binding was “binds”.

Question: How did the binding turn out when B13 was run?
Answer: Its binding is “binds”.

Question: B14 was tested. Which binding did it give?
Answer: The binding was “binds”.

Question: With B15 as the binder, how does the binding read?
Answer: The binding was “binds”.

Question: How did the binding turn out when B16 was run?
Answer: The binding was “binds”.

Question: With B17 as the binder, how does the binding read?
Answer: The binding was “binds”.

Question: B18 was tested. Which binding did it give?
Answer: Its binding is “binds”.

Question: For B19, which binding is on record?
Answer: Its binding is “binds”.

Question: With B20 as the binder, how does the binding read?
Answer: Its binding is “binds”.

Question: For B21, which binding is on record?
Answer: The binding was “binds”.

Question: Which binding does the source give for B22 here?
Answer: Its binding is “binds”.

From patent US20240301064A1
